From PMC13064919, “Novel extracellular vesicle release pathway facilitated by toxic superoxide dismutase 1 oligomers” (Neurobiology of disease, 2026)
These are yes or no findings as the source states them, for the method shown. Some entries that bind do so weakly or less than the wild type.

Columns and labels:
[1] = target: Caveolin-1 (mouse (endogenous in NSC-34)) (UniProt P49817); assay: native gel or EMSA; native western blot (Tris-glycine running buffer without SDS, 12% gel) of lysate of NSC-34 cells (control, WT, A4V or FH SOD1 overexpressed); Caveolin-1 oligomers break down with 0.1 M DTT and heat
[2] = target: Cavin-1 (mouse (endogenous in NSC-34)) (UniProt O54724); assay: as above

B1: Caveolin-1 (protein, UniProt P49817 1-178)
chain: MSGGKYVDSEGHLYTVPIREQGNIYKPNNKAMADEVTEKQVYDAHTKEIDLVNRDPKHLNDDVVKIDFEDVIAEPEGTHSFDGIWKASFTTFTVTKYWFYRLLSTIFGIPMALIWGIYFAILSFLHIWAVVPCIKSFLIEIQCISRVYSIYVHTFCDPLFEAIGKIFSNIRISTQKEI
In the case of B1, the binding [1] is reported as “binds”.

B2: Cavin-1 (natural protein, mouse (endogenous in NSC-34), UniProt O54724 1-392, looked up)
chain: MEDVTLHIVERPYSGFPDASSEGPEPTQGEARATEEPSGTGSDELIKSDQVNGVLVLSLLDKIIGAVDQIQLTQAQLEERQAEMEGAVQSIQGELSKLGKAHATTSNTVSKLLEKVRKVSVNVKTVRGSLERQAGQIKKLEVNEAELLRRRNFKVMIYQDEVKLPAKLSVSKSLKESEALPEKEGDELGEGERPEDDTAAIELSSDEAVEVEEVIEESRAERIKRSGLRRVDDFKKAFSKEKMEKTKVRTRENLEKTRLKTKENLEKTRHTLEKRMNKLGTRLVPVERREKLKTSRDKLRKSFTPDHVVYARSKTAVYKVPPFTFHVKKIREGEVEVLKATEMVEVGPEDDEVGAERGEATDLLRGSSPDVHTLLEITEESDAVLVDKSDSD
notes: Cavin-1, endogenous in NSC-34 cells, detected by western blot; source: endogenous, NSC-34 lysate (RIPA buffer)
For B2, the binding [2] was “binds”.
